# Tested on: E. coli (CCUG 29300)
# Experiment: Endotoxin binding of AMP functionalised crosslinked hydrogel particle dispersion, chromogenic LAL endotoxin assay
# Assay type: cell-based
# Conditions: 2 μg/ml Ciprofloxacin preparation
# Procedure: A colony of E. coli (CCUG 29300) was inoculated in Tryptic Soy Broth, TSB. It was cultivated until mid-log (~10^9 CFU/ml). The substances to be tested were prepared and diluted to the correct concentrations. As they were subsequently a 2× concentration of interest was prepared. The aim was for 50×MIC for quite fast activity. For this study 2 ml of each (for 2×50×MIC) of the following were prepared:
# The prepared substances were added to Eppendorf tubes, and 500 μl of PBS was added to each. A solution of 10% TSB, 90% PBS was prepared. 500 μl of the bacterial solution was added to the tubes, except the −bac tube, to prepare a 10^6 CFU/ml concentration. 500 μl of PBS was added to the −bac tube.
# The tubes were vortexed and incubated at 37° C. Each of the samples was removed at desired time intervals (1 hour, 3 hours, and 24 hours).
# The absorbance was read on a plate reader at 545 nm using distilled water as a reference. The endotoxin concentrations were measured using a standard curve from the endotoxin standards.
smiles,measurement,value
O=C(O)c1cn(C2CC2)c2cc(N3CCNCC3)c(F)cc2c1=O [Ciprofloxacin],endotoxin release compared with free AMP or AMP attached to hydrogel,significantly more endotoxin release
